Binding data for three molecules are collected here from article PMC10041115, “Cryo-EM structure of the four-subunit Rhodobacter sphaeroides cytochrome bc1 complex in styrene maleic acid nanodiscs” (Proceedings of the National Academy of Sciences of the …, 2023).

Chains of the proteins cited; added tags and fusions are not shown. Lines headed by an entry give the natural chain unless they say otherwise; changes in a name come on top.
UniProt Q3J2Z2: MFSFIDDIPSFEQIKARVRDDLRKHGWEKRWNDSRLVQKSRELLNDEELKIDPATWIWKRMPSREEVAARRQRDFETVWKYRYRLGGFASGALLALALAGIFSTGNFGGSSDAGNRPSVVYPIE

These are yes or no findings as the source states them, for the method shown. In cells and extracts the contact can be indirect. These calls come from enrichment with a bait or labelling near it, and not all partners need be listed. Sequences can lack the tags named with a protein.

T1: cytochrome c1 subunit of the Rhodobacter sphaeroides cytochrome bc1 complex, His10-tagged (Rhodobacter sphaeroides) (UniProt Q02760)
T1 sequence: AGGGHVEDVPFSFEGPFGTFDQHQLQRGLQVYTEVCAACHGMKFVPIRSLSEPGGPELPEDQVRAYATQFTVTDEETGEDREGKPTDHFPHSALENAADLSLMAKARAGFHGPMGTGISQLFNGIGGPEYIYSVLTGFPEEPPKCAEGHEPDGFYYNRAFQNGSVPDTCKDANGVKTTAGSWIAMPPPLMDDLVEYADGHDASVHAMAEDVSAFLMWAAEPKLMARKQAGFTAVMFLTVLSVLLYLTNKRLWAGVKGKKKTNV

B1: cytochrome b subunit of the Rhodobacter sphaeroides cytochrome bc1 complex (protein, UniProt Q02761 1-445)
chain: MSGIPHDHYEPRTGIEKWLHSRLPIVALAYDTIMIPTPRNLNWMWIWGVVLAFCLVLQIVTGIVLAMHYTPHVDLAFASVEHIMRNVNGGFMLRYLHANGASLFFIAVYLHIFRGLYYGSYKAPREVTWIVGMLIYLAMMATAFMGYVLPWGQMSFWGATVITGLFGAIPGIGHSIQTWLLGGPAVDNATLNRFFSLHYLLPFVIAALVAIHIWAFHSTGNNNPTGVEVRRTSKAEAQKDTVPFWPYFIIKDVFALAVVLLVFFAIVGFMPNYLGHPDNYIEANPLSTPAHIVPEWYFLPFYAILRAFTADVWVVQIANFISFGIIDAKFFGVLAMFGAILVMALVPWLDTSPVRSGRYRPMFKIYFWLLAADFVILTWVGAQQTTFPYDWISLIASAYWFAYFLVILPILGAIEKPVAPPATIEEDFNAHYSPATGGTKTVVAE
B2: Rieske iron-sulfur protein subunit of the Rhodobacter sphaeroides cytochrome bc1 complex (natural protein, UniProt Q02762 1-187, looked up)
chain: MSNAEDHAGTRRDFLYYATAGAGAVATGAAVWPLINQMNPSADVQALASIFVDVSSVEPGVQLTVKFLGKPIFIRRRTEADIELGRSVQLGQLVDTNARNANIDAGAEATDQNRTLDEAGEWLVMWGVCTHLGCVPIGGVSGDFGGWFCPCHGSHYDSAGRIRKGPAPENLPIPLAKFIDETTIQLG
notes: also called Rieske subunit; Rieske ISP; source: endogenous, R. sphaeroides grown photosynthetically; SMA-solubilised membranes, purified in native nanodiscs (Ni-NTA, sucrose gradient, SEC)

The target in this assay is T1, cytochrome c1 subunit of the Rhodobacter sphaeroides cytochrome bc1 complex, His10-tagged (Rhodobacter sphaeroides). Put plainly: affinity purification with mass spectrometry.
With “subunit IV of the Rhodobacter sphaeroides cytochrome bc1 complex (from UniProt Q3J2Z2)”, the binding result is “binds”.

For B1, the binding result is “binds”.

For B2, the binding entry was “binds”.
